The record followed here is article PMC5684413.

By UniProt entry, the sequences of proteins in these tests, tags left out. Where a name states a change or a piece, a line headed by the entry shows the natural chain unless it says otherwise. Residues count along the entry.
UniProt Q96EB6: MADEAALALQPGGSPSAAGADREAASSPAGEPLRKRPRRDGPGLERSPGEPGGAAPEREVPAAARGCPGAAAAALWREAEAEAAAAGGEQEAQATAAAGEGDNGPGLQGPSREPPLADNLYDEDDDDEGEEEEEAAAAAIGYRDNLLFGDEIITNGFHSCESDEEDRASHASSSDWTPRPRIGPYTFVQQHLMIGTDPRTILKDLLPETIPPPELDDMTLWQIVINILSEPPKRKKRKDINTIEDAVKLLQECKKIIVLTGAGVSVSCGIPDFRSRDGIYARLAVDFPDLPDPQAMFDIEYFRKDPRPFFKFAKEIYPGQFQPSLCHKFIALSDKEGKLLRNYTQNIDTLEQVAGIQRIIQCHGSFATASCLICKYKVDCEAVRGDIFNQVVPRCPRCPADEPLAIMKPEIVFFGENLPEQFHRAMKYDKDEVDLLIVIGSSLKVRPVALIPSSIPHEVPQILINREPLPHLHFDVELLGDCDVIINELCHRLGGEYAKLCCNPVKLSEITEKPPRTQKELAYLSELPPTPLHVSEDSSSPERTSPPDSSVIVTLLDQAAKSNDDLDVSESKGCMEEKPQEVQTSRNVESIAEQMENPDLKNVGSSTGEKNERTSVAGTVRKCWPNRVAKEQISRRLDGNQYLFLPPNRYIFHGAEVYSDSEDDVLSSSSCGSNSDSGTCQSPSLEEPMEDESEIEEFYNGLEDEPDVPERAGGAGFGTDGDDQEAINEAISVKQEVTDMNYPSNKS
GST-SIRT1 C-terminal domain (aa 500–747): residues 500-747 of Q96EB6

No constants are given. Whether binding was seen depends on the method and setting. For some assays here: In cells and extracts the contact can be indirect. Some binding calls cover weakened binding; strength is not graded here. For some assays here: Sequences can lack the tags named with a protein.

The target in test [1] is SIRT1 (endogenous) (human (endogenous in NCI-H1299)) (UniProt Q96EB6). Description: co-IP; endogenous proteins from NCI-H1299 whole-cell extracts (NP40 lysis buffer); IP with anti-SIRT1 or anti-OGT antibody, immunoblot; control IgG and SIRT1- or OGT-silenced cells as controls. For orientation: In western blotting, separated proteins are transferred to a membrane and probed.

For test [2] the target is unchanged. The test is described as follows: condition: only cells lysed in 1% SDS lysis buffer and then diluted 10-fold with NP40 lysis buffer; co-IP; cells lysed in 1% SDS lysis buffer, then diluted 10-fold with NP40 lysis buffer (to denature proteins and disrupt complexes); IP with anti-SIRT1 antibody, immunoblot.
Test [3] has as its target Flag-tagged SIRT1^S549A (human) (UniProt Q96EB6). Description: co-IP; HA-OGT and Flag-tagged wtSIRT1 or SIRT1^S549A co-transfected into NCI-H1299 cells; IP with anti-Flag antibody, immunoblot with anti-HA and anti-Flag.
The target of test [4] is Flag-tagged wtSIRT1 (human) (UniProt Q96EB6). The test is described as above.
For test [5], the target named is GST-SIRT1 C-terminal domain (aa 500–747) (human) (UniProt Q96EB6). The test is described as follows: pull-down; GST-SIRT1 deletion mutants (100–200 ng) bound on GS4B beads, purified OGT (300 ng), overnight at 4 °C, washed three times with NP40 lysis buffer; both purified.

B1: O-GlcNAc transferase (OGT), endogenous (enzyme, UniProt O15294 1-1046)
chain: MASSVGNVADSTEPTKRMLSFQGLAELAHREYQAGDFEAAERHCMQLWRQEPDNTGVLLLLSSIHFQCRRLDRSAHFSTLAIKQNPLLAEAYSNLGNVYKERGQLQEAIEHYRHALRLKPDFIDGYINLAAALVAAGDMEGAVQAYVSALQYNPDLYCVRSDLGNLLKALGRLEEAKACYLKAIETQPNFAVAWSNLGCVFNAQGEIWLAIHHFEKAVTLDPNFLDAYINLGNVLKEARIFDRAVAAYLRALSLSPNHAVVHGNLACVYYEQGLIDLAIDTYRRAIELQPHFPDAYCNLANALKEKGSVAEAEDCYNTALRLCPTHADSLNNLANIKREQGNIEEAVRLYRKALEVFPEFAAAHSNLASVLQQQGKLQEALMHYKEAIRISPTFADAYSNMGNTLKEMQDVQGALQCYTRAIQINPAFADAHSNLASIHKDSGNIPEAIASYRTALKLKPDFPDAYCNLAHCLQIVCDWTDYDERMKKLVSIVADQLEKNRLPSVHPHHSMLYPLSHGFRKAIAERHGNLCLDKINVLHKPPYEHPKDLKLSDGRLRVGYVSSDFGNHPTSHLMQSIPGMHNPDKFEVFCYALSPDDGTNFRVKVMAEANHFIDLSQIPCNGKAADRIHQDGIHILVNMNGYTKGARNELFALRPAPIQAMWLGYPGTSGALFMDYIITDQETSPAEVAEQYSEKLAYMPHTFFIGDHANMFPHLKKKAVIDFKSNGHIYDNRIVLNGIDLKAFLDSLPDVKIVKMKCPDGGDNADSSNTALNMPVIPMNTIAEAVIEMINRGQIQITINGFSISNGLATTQINNKAATGEEVPRTIIVTTRSQYGLPEDAIVYCNFNQLYKIDPSTLQMWANILKRVPNSVLWLLRFPAVGEPNIQQYAQNMGLPQNRIIFSPVAPKEEHVRRGQLADVCLDTPLCNGHTTGMDVLWAGTPMVTMPGETLASRVAASQLTCLGCLELIAKNRQEYEDIAVKLGTDLEYLKKVRGKVWKQRISSPLFNTKQYTMELERLYLQMWEHYAAGNKPDHMIKPVEVTESA
B1: the values for the binding entry in test [1] and in test [2] were “binds” and “no binding”, respectively.

B2: HA-tagged OGT (enzyme, UniProt O15294 1-1046)
chain: MASSVGNVADSTEPTKRMLSFQGLAELAHREYQAGDFEAAERHCMQLWRQEPDNTGVLLLLSSIHFQCRRLDRSAHFSTLAIKQNPLLAEAYSNLGNVYKERGQLQEAIEHYRHALRLKPDFIDGYINLAAALVAAGDMEGAVQAYVSALQYNPDLYCVRSDLGNLLKALGRLEEAKACYLKAIETQPNFAVAWSNLGCVFNAQGEIWLAIHHFEKAVTLDPNFLDAYINLGNVLKEARIFDRAVAAYLRALSLSPNHAVVHGNLACVYYEQGLIDLAIDTYRRAIELQPHFPDAYCNLANALKEKGSVAEAEDCYNTALRLCPTHADSLNNLANIKREQGNIEEAVRLYRKALEVFPEFAAAHSNLASVLQQQGKLQEALMHYKEAIRISPTFADAYSNMGNTLKEMQDVQGALQCYTRAIQINPAFADAHSNLASIHKDSGNIPEAIASYRTALKLKPDFPDAYCNLAHCLQIVCDWTDYDERMKKLVSIVADQLEKNRLPSVHPHHSMLYPLSHGFRKAIAERHGNLCLDKINVLHKPPYEHPKDLKLSDGRLRVGYVSSDFGNHPTSHLMQSIPGMHNPDKFEVFCYALSPDDGTNFRVKVMAEANHFIDLSQIPCNGKAADRIHQDGIHILVNMNGYTKGARNELFALRPAPIQAMWLGYPGTSGALFMDYIITDQETSPAEVAEQYSEKLAYMPHTFFIGDHANMFPHLKKKAVIDFKSNGHIYDNRIVLNGIDLKAFLDSLPDVKIVKMKCPDGGDNADSSNTALNMPVIPMNTIAEAVIEMINRGQIQITINGFSISNGLATTQINNKAATGEEVPRTIIVTTRSQYGLPEDAIVYCNFNQLYKIDPSTLQMWANILKRVPNSVLWLLRFPAVGEPNIQQYAQNMGLPQNRIIFSPVAPKEEHVRRGQLADVCLDTPLCNGHTTGMDVLWAGTPMVTMPGETLASRVAASQLTCLGCLELIAKNRQEYEDIAVKLGTDLEYLKKVRGKVWKQRISSPLFNTKQYTMELERLYLQMWEHYAAGNKPDHMIKPVEVTESA
As for B2, the binding entry in test [3] and in test [4] was “binds” each time.

B3: MBP-fused OGT (enzyme, UniProt O15294 1-1046)
chain: MASSVGNVADSTEPTKRMLSFQGLAELAHREYQAGDFEAAERHCMQLWRQEPDNTGVLLLLSSIHFQCRRLDRSAHFSTLAIKQNPLLAEAYSNLGNVYKERGQLQEAIEHYRHALRLKPDFIDGYINLAAALVAAGDMEGAVQAYVSALQYNPDLYCVRSDLGNLLKALGRLEEAKACYLKAIETQPNFAVAWSNLGCVFNAQGEIWLAIHHFEKAVTLDPNFLDAYINLGNVLKEARIFDRAVAAYLRALSLSPNHAVVHGNLACVYYEQGLIDLAIDTYRRAIELQPHFPDAYCNLANALKEKGSVAEAEDCYNTALRLCPTHADSLNNLANIKREQGNIEEAVRLYRKALEVFPEFAAAHSNLASVLQQQGKLQEALMHYKEAIRISPTFADAYSNMGNTLKEMQDVQGALQCYTRAIQINPAFADAHSNLASIHKDSGNIPEAIASYRTALKLKPDFPDAYCNLAHCLQIVCDWTDYDERMKKLVSIVADQLEKNRLPSVHPHHSMLYPLSHGFRKAIAERHGNLCLDKINVLHKPPYEHPKDLKLSDGRLRVGYVSSDFGNHPTSHLMQSIPGMHNPDKFEVFCYALSPDDGTNFRVKVMAEANHFIDLSQIPCNGKAADRIHQDGIHILVNMNGYTKGARNELFALRPAPIQAMWLGYPGTSGALFMDYIITDQETSPAEVAEQYSEKLAYMPHTFFIGDHANMFPHLKKKAVIDFKSNGHIYDNRIVLNGIDLKAFLDSLPDVKIVKMKCPDGGDNADSSNTALNMPVIPMNTIAEAVIEMINRGQIQITINGFSISNGLATTQINNKAATGEEVPRTIIVTTRSQYGLPEDAIVYCNFNQLYKIDPSTLQMWANILKRVPNSVLWLLRFPAVGEPNIQQYAQNMGLPQNRIIFSPVAPKEEHVRRGQLADVCLDTPLCNGHTTGMDVLWAGTPMVTMPGETLASRVAASQLTCLGCLELIAKNRQEYEDIAVKLGTDLEYLKKVRGKVWKQRISSPLFNTKQYTMELERLYLQMWEHYAAGNKPDHMIKPVEVTESA
Consider B3, for which the binding entry in test [5] is “binds”.
